# Measurements taken from the supplement of paper PMC8728848.
# The list shows a part of the results.
# B1: Pbx2CASH domain (Cryptococcus neoformans) (protein)
# chain: GIPGPNRLYRLSGPIIFTAADQEIATYGYPTGSERAVLRVEGRNTATAIQGDCRRCARVSVKNLVVDGNRKKLGRMRDFQLATGLVVLGGNEGQSIQNSWIKNPRGFTAIHIREGDKLQCSGARVEKNEIGPVGEEYDPEKDGDDPEMSPLGRPLADGVSIACRDSFIRDNTFRDNTDAAIVVYCSPGTLIHA
# Legend:
# Experiment in all cases: glycan array binding signal (z-score within array); higher = stronger binding
# Details in all cases: glycan notation: IUPAC condensed, linker removed
# [1] = molecular target: Fuc(a1-3)[Gal(b1-4)]Glc6S
# How it was run: (§1)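 The binding signal is a Z-score computed within each array. Data were drawn from 3228 arrays in the Consortium for Functional Glycomics database, restricted to those with a known protein sequence. Scores were averaged over arrays of the same protein sequence at different concentrations or buffers, and over linkers, and negative values can be taken as non-binding.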
# [2] = molecular target: Fuc(a1-3)[Gal(b1-4)]GlcNAc
# How it was run: as §1
# [3] = molecular target: Fuc(a1-3)[Gal(b1-4)]GlcNAc(b1-2)Man
# How it was run: as §1
# [4] = molecular target: Fuc(a1-3)[Gal(b1-4)]GlcNAc(b1-2)Man(a1-3)[Fuc(a1-3)[Gal(b1-4)]GlcNAc(b1-2)Man(a1-6)]Man(b1-4)GlcNAc(b1-4)GlcNAc
# How it was run: as §1
# [5] = molecular target: Fuc(a1-3)[Gal(b1-4)]GlcNAc(b1-2)Man(a1-3)[Fuc(a1-3)[Gal(b1-4)]GlcNAc(b1-2)Man(a1-6)]Man(b1-4)GlcNAc(b1-4)[Fuc(a1-6)]GlcNAc
# How it was run: as §1
# [6] = molecular target: Fuc(a1-3)[Gal(b1-4)]GlcNAc(b1-3)Gal(b1-3)[Fuc(a1-4)]GlcNAc
# How it was run: as §1
# [7] = molecular target: Fuc(a1-3)[Gal(b1-4)]GlcNAc(b1-3)GalNAc
# How it was run: as §1
# [8] = molecular target: Fuc(a1-3)[Gal(b1-4)]GlcNAc(b1-4)Gal(b1-4)[Fuc(a1-3)]GlcNAc
# How it was run: as §1
# [9] = molecular target: Fuc(a1-3)[Gal(b1-4)]GlcNAc(b1-4)Gal(b1-4)[Fuc(a1-3)]GlcNAc(b1-4)Gal(b1-4)[Fuc(a1-3)]GlcNAc
# How it was run: as §1
# [10] = molecular target: Fuc(a1-3)[Gal(b1-4)]GlcNAc(b1-6)GalNAc
# How it was run: as §1
# [11] = molecular target: Fuc(a1-3)[Gal(b1-4)]GlcNAc(b1-6)[Gal(b1-3)GlcNAc(b1-3)]Gal(b1-4)Glc
# How it was run: as §1
# [12] = molecular target: Fuc(a1-3)[Gal(b1-4)]GlcNAc6S
# How it was run: as §1
# [13] = molecular target: Fuc(a1-3)[Gal3S(b1-4)]Glc
# How it was run: as §1
# [14] = molecular target: Fuc(a1-3)[Gal3S(b1-4)]GlcNAc
# How it was run: as §1
# [15] = molecular target: Fuc(a1-3)[Gal3S(b1-4)]GlcNAc6S
# How it was run: as §1
# [16] = molecular target: Fuc(a1-3)[GalNAc(b1-4)]GlcNAc
# How it was run: as §1
# [17] = molecular target: Fuc(a1-3)[GalNAc(b1-4)]GlcNAc6S
# How it was run: as §1
# [18] = molecular target: Fuc(a1-4)GlcNAc
# How it was run: as §1
# [19] = molecular target: Fuc(b1-3)GlcNAc
# How it was run: as §1
# [20] = molecular target: Gal(a1-2)Gal
# How it was run: as §1
# [21] = molecular target: Gal(a1-3)Gal
# How it was run: as §1
# [22] = molecular target: Gal(a1-3)Gal(b1-3)GlcNAc
# How it was run: as §1
# [23] = molecular target: Gal(a1-3)Gal(b1-3)GlcNAc(b1-2)Man
# How it was run: as §1
# [24] = molecular target: Gal(a1-3)Gal(b1-3)GlcNAc(b1-2)Man(a1-3)[Gal(a1-3)Gal(b1-3)GlcNAc(b1-2)Man(a1-6)]Man(b1-4)GlcNAc(b1-4)GlcNAc
# How it was run: as §1
# [25] = molecular target: Gal(a1-3)Gal(b1-3)GlcNAc(b1-3)GalNAc
# How it was run: as §1
# [26] = molecular target: Gal(a1-3)Gal(b1-3)GlcNAc(b1-6)GalNAc
# How it was run: as §1
# [27] = molecular target: Gal(a1-3)Gal(b1-3)[Fuc(a1-4)]GlcNAc(b1-2)Man(a1-3)[Gal(a1-3)Gal(b1-3)[Fuc(a1-4)]GlcNAc(b1-2)Man(a1-6)]Man(b1-4)GlcNAc(b1-4)GlcNAc
# How it was run: as §1
# [28] = molecular target: Gal(a1-3)Gal(b1-4)Glc
# How it was run: as §1
# [29] = molecular target: Gal(a1-3)Gal(b1-4)GlcNAc
# How it was run: as §1
# [30] = molecular target: Gal(a1-3)Gal(b1-4)GlcNAc(b1-2)Man
# How it was run: as §1
# [31] = molecular target: Gal(a1-3)Gal(b1-4)GlcNAc(b1-2)Man(a1-3)[Gal(a1-3)Gal(b1-4)GlcNAc(b1-2)Man(a1-6)]Man(b1-4)GlcNAc(b1-4)GlcNAc
# How it was run: as §1
# [32] = molecular target: Gal(a1-3)Gal(b1-4)GlcNAc(b1-3)GalNAc
# How it was run: as §1
# [33] = molecular target: Gal(a1-3)Gal(b1-4)GlcNAc(b1-6)GalNAc
# How it was run: as §1
# [34] = molecular target: Gal(a1-3)Gal(b1-4)[Fuc(a1-3)]GlcNAc
# How it was run: as §1
# [35] = molecular target: Gal(a1-3)Gal(b1-4)[Fuc(a1-3)]GlcNAc(b1-2)Man(a1-3)[Gal(a1-3)Gal(b1-4)[Fuc(a1-3)]GlcNAc(b1-2)Man(a1-6)]Man(b1-4)GlcNAc(b1-4)GlcNAc
# How it was run: as §1
# [36] = molecular target: Gal(a1-3)GalNAc
# How it was run: as §1
# [37] = molecular target: Gal(a1-3)[Gal(a1-4)]Gal(b1-4)GlcNAc
# How it was run: as §1
# [38] = molecular target: Gal(a1-4)Gal(b1-3)GlcNAc(b1-2)Man(a1-3)[Gal(a1-4)Gal(b1-3)GlcNAc(b1-2)Man(a1-6)]Man(b1-4)GlcNAc(b1-4)GlcNAc
# How it was run: as §1
# [39] = molecular target: Gal(a1-4)Gal(b1-4)Glc
# How it was run: as §1
# [40] = molecular target: Gal(a1-4)Gal(b1-4)GlcNAc
# How it was run: as §1
# [41] = molecular target: Gal(a1-4)Gal(b1-4)GlcNAc(b1-2)Man(a1-3)[Gal(a1-4)Gal(b1-4)GlcNAc(b1-2)Man(a1-6)]Man(b1-4)GlcNAc(b1-4)GlcNAc
# How it was run: as §1
# [42] = molecular target: Gal(a1-4)Gal(b1-4)GlcNAc(b1-3)Gal(b1-4)Glc
# How it was run: as §1
# [43] = molecular target: Gal(a1-4)GlcNAc
# How it was run: as §1
# [44] = molecular target: Gal(a1-6)Glc
# How it was run: as §1
# [45] = molecular target: Gal(b1-2)Gal
# How it was run: as §1
binder,measurement,setting,value
B1,glycan array binding signal (z-score),[1],-0.329
same,glycan array binding signal (z-score),[2],-0.361
same,glycan array binding signal (z-score),[3],-0.365
same,glycan array binding signal (z-score),[4],-0.141
same,glycan array binding signal (z-score),[5],0.103
same,glycan array binding signal (z-score),[6],-0.25
same,glycan array binding signal (z-score),[7],0.128
same,glycan array binding signal (z-score),[8],-0.152
same,glycan array binding signal (z-score),[9],-0.264
same,glycan array binding signal (z-score),[10],-0.167
same,glycan array binding signal (z-score),[11],-0.684
same,glycan array binding signal (z-score),[12],-0.189
same,glycan array binding signal (z-score),[13],0.042
same,glycan array binding signal (z-score),[14],-0.127
same,glycan array binding signal (z-score),[15],-0.329
same,glycan array binding signal (z-score),[16],-0.303
same,glycan array binding signal (z-score),[17],-0.22
same,glycan array binding signal (z-score),[18],-0.285
same,glycan array binding signal (z-score),[19],-0.36
same,glycan array binding signal (z-score),[20],-0.685
same,glycan array binding signal (z-score),[21],0.369
same,glycan array binding signal (z-score),[22],0.751
same,glycan array binding signal (z-score),[23],1.4
same,glycan array binding signal (z-score),[24],0.195
same,glycan array binding signal (z-score),[25],-0.375
same,glycan array binding signal (z-score),[26],-0.038
same,glycan array binding signal (z-score),[27],2.46
same,glycan array binding signal (z-score),[28],0.23
same,glycan array binding signal (z-score),[29],-0.225
same,glycan array binding signal (z-score),[30],1.11
same,glycan array binding signal (z-score),[31],0.227
same,glycan array binding signal (z-score),[32],-0.615
same,glycan array binding signal (z-score),[33],-0.025
same,glycan array binding signal (z-score),[34],-0.429
same,glycan array binding signal (z-score),[35],1.84
same,glycan array binding signal (z-score),[36],-0.359
same,glycan array binding signal (z-score),[37],0.449
same,glycan array binding signal (z-score),[38],-0.475
same,glycan array binding signal (z-score),[39],-0.357
same,glycan array binding signal (z-score),[40],-0.598
same,glycan array binding signal (z-score),[41],-0.205
same,glycan array binding signal (z-score),[42],-0.313
same,glycan array binding signal (z-score),[43],-0.406
same,glycan array binding signal (z-score),[44],-0.008
same,glycan array binding signal (z-score),[45],-0.585

# Rewritten tab-delimited: part of the list above
binder	measurement	setting	value
B1	glycan array binding signal (z-score)	[1]	-0.329
same	glycan array binding signal (z-score)	[6]	-0.25
same	glycan array binding signal (z-score)	[12]	-0.189
